Results: PubChem BioAssay AID2685 (National Center for Advancing Translational Sciences (NCATS), 2010)
This is one part of the list. The main result of the screen is listed elsewhere. These columns were measured beside it and carry no call. The list favours compounds with an active or inconclusive main result. The note in brackets gives the kind of curve behind each potency; many fits are weak.

Experiment: qHTS Assay for Lipid Storage Modulators in Drosophila S3 Cells;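 for cell number change: cells counted by Cell Tracker Red CMTPX staining in the red channel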
Conditions: BODIPY lipid droplet fluorescence, 18-24 h; for cell number change: measured here: cell count max response, cells fed with added oleic acid
Summary of the method: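 Drosophila S3 cells got compounds at several concentrations plus oleic acid (400 uM solution). Laser-scanning cytometry with 488 nm excitation read lipid droplets at 500-530 nm and cells at 575-640 nm. Percent activity was relative to 20 uM Triacsin C.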

[1] = measured here: cell number channel AC50, cells fed with added oleic acid
[2] = measured here: lipid fluorescence (Fed channel) AC50, cells fed with added oleic acid

For `O=C(NCc1ccc(F)cc1)C1CCCN(c2nc3ccsc3c(=O)s2)C1` (stereo not drawn), the cell number change was -60.1%, the AC50 [1] was 29.1 µM [falling, partial curve, poor fit] and the AC50 [2] was 29.1 µM [falling, single point].
For `NCCCNc1nc(N)c([N+](=O)[O-])c(NC2CCCCC2)n1`, the cell number change was 14.4% and the AC50 [2] was 29.1 µM [rising, single point].
For `O=C(COC(=O)c1cccs1)NC12CC3CC(CC(C3)C1)C2`, the cell number change was -102%, the AC50 [1] was 23.1 µM [falling, single point] and the AC50 [2] was 29.1 µM [falling, partial curve].
In the case of `COc1ccc(C2(C)NC(=O)N(CC(=O)NCc3ccccc3F)C2=O)cc1` (stereo not drawn), the cell number change is reported as 34.1% and the AC50 [1] is reported as 29.1 µM [rising, single point].
For `CN(C)C1=NC[C@H](Cc2ccccc2)N1CCCCc1ccccc1`, the cell number change was 16.7%, the AC50 [1] was 1.16 µM [rising, full curve, poor fit] and the AC50 [2] was 8.2 µM [rising, partial curve, poor fit].
For `O=C(Cc1ccccc1)NCC(=O)OCc1ccc([N+](=O)[O-])cc1`, the cell number change was 50% and the AC50 [1] was 13 µM [rising, single point].
In the case of `Cc1ccc(C2CC(=O)C=C(NCc3ccccc3)C2)cc1` (stereo not drawn), the cell number change is reported as 13% and the AC50 [2] is reported as 0.116 µM [falling, full curve, poor fit].
For `O=[N+]([O-])c1ccc(Sc2nc3ccccc3o2)c([N+](=O)[O-])c1`, the cell number change was -46.5%, the AC50 [1] was 23.1 µM [falling, single point] and the AC50 [2] was 29.1 µM [falling, single point].
In the case of `COc1cccc(-c2nnc(N(C)C(=O)c3ccno3)s2)c1`, the cell number change is reported as 17%, the AC50 [1] is reported as 0.0366 µM [rising, full curve, poor fit] and the AC50 [2] is reported as 6.51 µM [rising, partial curve].
For `CCCn1c(CCC(=O)O)ccc1-c1ccccc1`, the cell number change was 24% and the AC50 [2] was 0.00461 µM [rising, full curve, poor fit].
With `CCc1ccc(CN(C)C(=O)c2cc(COc3cccc(C(F)(F)F)c3)on2)nc1` the cell number change was 43.8%, the AC50 [1] was 20.6 µM [rising, partial curve, poor fit] and the AC50 [2] was 9.2 µM [rising, partial curve].
In the case of `CSCCC(NS(=O)(=O)c1ccc(Cl)cc1)C(=O)OCC(=O)NC1CCCCC1` (stereo not drawn), the cell number change is reported as -11.4% and the AC50 [2] is reported as 11.6 µM [rising, partial curve].
For `O=C(CN1CCc2ccccc2C1)Nc1cc(S(=O)(=O)N2CCOCC2)ccc1N1CCCC1`, the cell number change was -25.5%, the AC50 [1] was 6.51 µM [falling, single point] and the AC50 [2] was 2.59 µM [rising, full curve, poor fit].
